Experimental data: PubChem BioAssay AID1345085 (National Center for Advancing Translational Sciences (NCATS), 2018)
Inconclusive results, whose numbers are uncertain, are shown with a selection of clear calls. Potencies beside an inconclusive call are fits to weak or partial responses and may not hold up. The source made the active and inactive calls. Calls come from the whole dose curve; as a rule, active = well fitted cell-killing curve with a large enough effect; inconclusive = small, poorly fitted or top-dose-only effect, or effect the other way; inactive = no such curve, though single readings can be large or run the other way.

tested on: Hek293T; assay: Confirmatory qHTS for gynecologic anti-cancer compounds from libraries of approved drugs and bioactive compounds; details: gynecologic cancer cell panel viability, ATPlite luminescence, 48 h; series mostly up to 57.6 µM; activity change, negative = viability loss: at the top concentration; note: nearly all actives have a fitted effect of over 55% in size
From the text: National Center for Advancing Translational Sciences [NCATS] Assay Overview: Chemotherapeutic drug responses vary from cancer to cancer and from patient to patient. These variations could be caused by a number of factors including patient genomic background, tumor mutations, tumor heterogeneity, and aspects of drug treatment. Chemotherapeutic drug resistance is also a common issue and can lead to ineffective treatment and patient death. Here we have profiled the cell killing effects of thousands of compounds to characterize the responses in three gynecological cancers, identify cancer-selective compounds, and understand the diversity of responses to these compounds from pan-cancer suppressors to single cell line selective compounds. In this assay, we screened a 7,914 compound drug library that included approved drug and bioactive compounds in six ovarian, three cervical, and two placental cancer cell lines using the ATPlite assay for cell viability. ATPlite is a luminescence based assay reliant on the conversion of a luciferase substrate to light in the presence of ATP. As a cytotoxic compound will suppress growth and decrease the number of cells, the concentration of ATP will decrease, and less light signal will be detected in the well. Hits were selected from the primary screen for follow-up confirmation. For the confirmation screens, the ovarian cancer cell lines included CAOV-3, SK-OV-3, SW 626, ES-2, PA-1, and TOV-21G. The cervical cancer cell lines included HeLa, Ca Ski, and C-33 A. The placental cancer cell lines included JEG-3 and JAR. HEK 293T cells were used as the control cell line to determine the selectivity index. The ATPlite assay was used to determine the IC50 values.
Assay Protocol Summary: 1,000 cells in 4 uL of media were dispensed into white, solid bottom 1536-well plates using a Multidrop Combi (Thermo Scientific). The Assay plates were incubated for 16 hours at 37 C with 5% CO2 in assay plates, followed by the addition of 23 nL of DMSO or drug dissolved in DMSO. . Each compound was assayed in 11 concentrations (1:3 dilution) from 57.5 uM to 0.977 nM, using the automated Wako 1536 Pin Tool workstation and incubated at 37 C with 5% CO2 48 hours. 4 uL of ATPlite, the ATP monitoring reagent, was then added to the each well of the assay plates using the Multidrop Combi reagent dispenser followed by incubation for 15 minutes at room temperature. The resulting luminescence was measured using the ViewLux plate reader.
% is set by controls: 0 for no effect and ±100 for the full control effect; potency is the fitted concentration of half-maximal effect.

Structure (SMILES)	Potency	activity change, negative = viability loss
COc1cc(N2CCC(N(C)C)CC2)ccc1Nc1ncc(Cl)c(Nc2ccccc2P(C)(C)=O)n1	inconclusive: 15.3 µM [cytotoxic, full curve, poor fit]	
CC1(C)[C@@H](O)CC[C@]2(C)[C@H]3C(=O)C=C4[C@@H]5C[C@@](C)(C(=O)O)CC[C@]5(C)CC[C@@]4(C)[C@]3(C)CC[C@@H]12	inconclusive: 3.06 µM [cytotoxic, partial curve, poor fit]	
CNc1nc(Nc2ccc(C(=O)N3CCOCC3)cc2OC)ncc1Cl	inconclusive: 3.43 µM [rising, full curve]	
CC[C@@]1(O)C(=O)OCc2c1cc1n(c2=O)Cc2c-1nc1ccccc1c2/C=N/OC(C)(C)C	active: 0.172 µM	
COC(C(=O)N1Cc2[nH]nc(NC(=O)c3ccc(N4CCN(C)CC4)cc3)c2C1)c1ccccc1 (stereo not given)		inactive: 3.38%
c1cc(N[C@@H]2CCNC2)nc(-c2cnc3ccc(-c4cn[nH]c4)cn23)c1	inconclusive: 0.0385 µM [cytotoxic, full curve]	
COc1ccccc1N1CCN(CC(O)COc2cccc3ccccc23)CC1 (stereo not given)	inconclusive: 0.611 µM [cytotoxic, full curve, poor fit]	
Cc1ccc(C(=O)N(CCCN)C(c2oc3cc(Cl)ccc3c(=O)c2Cc2ccccc2)C(C)C)cc1 (stereo not given)	inconclusive: 21.7 µM [cytotoxic, partial curve, poor fit]	
COc1ccc(CCC(=O)c2c(O)cc(O[C@@H]3O[C@H](CO)[C@@H](O)[C@H](O)[C@H]3O[C@@H]3O[C@@H](C)[C@H](O)[C@@H](O)[C@H]3O)cc2O)cc1O	inconclusive: 15.3 µM [rising, partial curve]	
Cc1cc(SCc2sc(-c3ccc(C(F)(F)F)cc3)nc2C)ccc1OCC(=O)O	inconclusive: 0.544 µM [cytotoxic, single point]	
NCCOc1cc(C(=O)Nc2cc(OCCN)c3ccccc3n2)nc(C(=O)Nc2cc(OCCN)c3ccccc3n2)c1		inactive: 3.25%
Cc1ccccc1C(OCCN(C)C)c1ccccc1 (stereo not given)		inactive: 1.95%
O=C(NOCC1CC1)c1ccc(F)c(F)c1Nc1ccc(I)cc1Cl	inconclusive: 7.69 µM [cytotoxic, partial curve, poor fit]	
COC(C)(C)CCn1nc(Nc2c(C)cccc2C)c2cnc(Nc3ccc(OCCN4CCCC4)c(F)c3)nc21	inconclusive: 43.2 µM [cytotoxic, single point]	
C[C@]12CCC(=O)C=C1[C@@H]1C[C@@H]1[C@H]1[C@@H]3[C@@H]4C[C@@H]4[C@@]4(CCC(=O)O4)[C@@]3(C)CC[C@@H]12	inconclusive: 0.0193 µM [cytotoxic, single point]	
COc1c(C)c2c(c(O)c1C/C=C(\C)CCC(=O)OCCN1CCOCC1)C(=O)OC2	inconclusive: 6.85 µM [cytotoxic, partial curve, poor fit]	
CC[C@@]1(O)C(=O)OCc2c1cc1n(c2=O)Cc2cc3cc(O)ccc3nc2-1	active: 0.385 µM	
COc1ccc2cc3[n+](cc2c1OC)CCc1cc2c(cc1-3)OCO2	inconclusive: 0.0385 µM [rising, full curve, poor fit]	
COCCOc1ccc2c(c1)ncn2-c1ccc2cccc(N3CCC(N)CC3)c2n1	inconclusive: 24.3 µM [cytotoxic, partial curve, poor fit]	
OCCNC1CCCc2c1[nH]c1ccc(-c3ccccc3)cc21 (stereo not given)	inconclusive: 24.3 µM [cytotoxic, partial curve, poor fit]	

Structure (SMILES)	Potency	activity change, negative = viability loss
CN(C)c1ccc2nc3ccc(=[N+](C)C)cc-3sc2c1	inconclusive: 43.2 µM [cytotoxic, single point]	
OC[C@H]1O[C@@H](n2cnc3c(=S)nc[nH]c32)[C@H](O)[C@@H]1O	inconclusive: 12.2 µM [cytotoxic, full curve, poor fit]	
Cc1nc(N)ncc1-c1nc(N2CCOCC2)c2sc(C(C)(C)O)cc2n1	inconclusive: 6.11 µM [cytotoxic, full curve]	
Nc1ccccc1NC(=O)c1ccc(CNC(=O)OCc2cccnc2)cc1		inactive: -21.3%
Cc1nc(Nc2ncc(C(=O)Nc3c(C)cccc3Cl)s2)cc(N2CCN(CCO)CC2)n1	inconclusive: 38.5 µM [cytotoxic, partial curve, poor fit]	
COC(=O)c1ccc2c(C(=Nc3ccc(N(C)C(=O)CN4CCN(C)CC4)cc3)c3ccccc3)c(O)[nH]c2c1	inconclusive: 0.0611 µM [cytotoxic, full curve, poor fit]	
CCCCc1nc2cc(/C=C/C(=O)NO)ccc2n1CCN(CC)CC	active: 1.72 µM	
Nc1ccc(-c2ccc3ncc4ccc(=O)n(-c5cccc(C(F)(F)F)c5)c4c3c2)cn1	active: 0.0544 µM	
Cc1cc(Nc2nc(N[C@@H](C)c3ncc(F)cn3)ncc2Cl)n[nH]1		inactive: 17.7%
CC(C)(C(=O)NCC(F)(F)C(F)(F)F)C(=O)NC1C(=O)Nc2ccccc2-c2ccccc21 (stereo not given)		inactive: -13.8%
COc1cc2nccc(Oc3ccc(NC(=O)Nc4cc(C)on4)c(Cl)c3)c2cc1OC		inactive: -9.87%
CCC1C(=O)N(C)c2cnc(Nc3ccc(C(=O)NC4CCN(C)CC4)cc3OC)nc2N1C1CCCC1 (stereo not given)	active: 0.0193 µM	
CN(C)CCC(CSc1ccccc1)Nc1ccc(S(=O)(=O)NC(=O)c2ccc(N3CCN(Cc4ccccc4-c4ccc(Cl)cc4)CC3)cc2)cc1[N+](=O)[O-] (stereo not given)	inconclusive: 6.85 µM [rising, single point]	
Nc1ccc(C(=O)Nc2cccc(-c3nc(N4CCOCC4)c4oc5ncccc5c4n3)c2)cn1		inactive: -21.6%
Cc1ccc(C(N)=O)cc1Nc1nccc(-c2cn(C(C)C)c3cnccc23)n1	active: 13.7 µM	
O=C(CCCCCCNC(=O)c1cnc(N(c2ccccc2)c2ccccc2)nc1)NO	inconclusive: 19.3 µM [cytotoxic, partial curve, poor fit]	
Cn1cnc([N+](=O)[O-])c1Sc1ncnc2nc[nH]c12	inconclusive: 0.306 µM [cytotoxic, full curve, poor fit]	
CO[C@@]12[C@H](COC(N)=O)C3=C(C(=O)C(C)=C(N)C3=O)N1C[C@@H]1N[C@@H]12		inactive: -2.77%
CNC(=O)c1ccccc1Sc1ccc2c(/C=C/c3ccccn3)n[nH]c2c1	inconclusive: 0.485 µM [cytotoxic, partial curve, poor fit]	
COc1cc2ncnc(Nc3ccc(F)c(Cl)c3)c2cc1OCCCN1CCOCC1	inconclusive: 3.85 µM [cytotoxic, full curve, poor fit]	

2 of the compounds above, bar-delimited.
Structure (SMILES) | Potency | activity change, negative = viability loss
COc1cc(N2CCC(N(C)C)CC2)ccc1Nc1ncc(Cl)c(Nc2ccccc2P(C)(C)=O)n1 | inconclusive: 15.3 µM [cytotoxic, full curve, poor fit] | 
CC1(C)[C@@H](O)CC[C@]2(C)[C@H]3C(=O)C=C4[C@@H]5C[C@@](C)(C(=O)O)CC[C@]5(C)CC[C@@]4(C)[C@]3(C)CC[C@@H]12 | inconclusive: 3.06 µM [cytotoxic, partial curve, poor fit] | 
